# Data reported in the supplement of paper PMC8256030.
# Values joined by “and” are separate entries in the source; they are usually repeats but may differ in a detail not shown here. Identical values can stand only once. Counter-ions that a name gives are not always drawn. This is one part of the list. Repeats in this data set agree poorly, so a single value says little.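 HEK293T cells were given each compound shortly before transfection with a reporter in which red mCherry is followed by the SARS-CoV-2 frameshift element and then GFP in the −1 frame, so GFP appears only after frameshifting.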
# How the values were obtained:
# [1] = tested on: SARS-CoV-2 -1 PRF reporter mCherry-FSE-GFP(-1); experiment: mCherry (red) intensity as percent of control; higher = higher upstream reporter expression; conditions: 10 µM; 24 h; HEK293T
# [2] = tested on: SARS-CoV-2 -1 PRF reporter mCherry-FSE-GFP(-1); experiment: percent effect, decrease of GFP/mCherry ratio (-1 PRF reporter) relative to controls; higher = stronger frameshift inhibition; conditions: 10 µM; 24 h; HEK293T
SMILES,mCherry [1],percent effect [2]
C[C@H](C(=O)O)c1ccc(-c2ccccc2)c(F)c1 [esflurbiprofen],65%,-0.244%
C#C[C@]1(OC(C)=O)CC[C@H]2[C@@H]3CCC4=C/C(=N/O)CC[C@@H]4[C@H]3CC[C@@]21CC [Ortho-Prefest],99.2%,-2.85%
CN(C)CCC[C@@]1(c2ccc(F)cc2)OCc2cc(C#N)ccc21 [escitalopram],107% and 122%,-4.25% and 3.77%
Cc1c(NC(C)C)c(=O)n(-c2ccccc2)n1C [ramifenazone],47.2%,-1.6%
CC(=O)O[C@]1(C(C)=O)CC[C@H]2[C@@H]3C=C(Cl)C4=CC(=O)[C@@H]5C[C@@H]5[C@]4(C)[C@H]3CC[C@@]21C,87.6%,-8.56%
COc1cc2ncnc(N3CCN(C(=O)OCC(C)(C)O)CC3)c2cc1OC [hoquizil],53.8%,-9.58%
CC1(C)S[C@@H]2[C@H](NC(=O)C(C(=O)O)c3ccccc3)C(=O)N2[C@H]1C(=O)O (stereo partly specified) [carbenicillin],109%,-2.54%
COC(=O)[C@@H](N)Cc1ccc(O)c(O)c1 [melevodopa],84.8%,-0.265%
CN(C)C(=O)Cn1cc(-c2nc([C@@](C)(c3ccc(-c4cnc(N)nc4)cc3)C3CC3)no2)cn1,76.8%,-2.53%
CC(=O)[C@H]1CC[C@H]2[C@@H]3CC=C4C=C(OC5CCCC5)CC[C@]4(C)[C@H]3CC[C@]12C [quingestrone],90.5%,-0.488%
CC(Cc1cccc(C(F)(F)F)c1)NCCOC(=O)c1ccccc1 (stereo unspecified) [benfluorex],96.4%,-0.68%
C/C(=N\O)C(C)NCC(C)(C)CNC(C)/C(C)=N/O (stereo unspecified) [exametazime],97%,-3.03%
NS(=O)(=O)c1cc2c(cc1Cl)N=CNS2(=O)=O [chlorothiazide],96%,-2.98%
O=C1N=C(N2CCOCC2)CN1c1ccc(Cl)cc1 [imepitoin],93.4%,-0.879%
NCCCC(O)(P(=O)(O)O)P(=O)(O)O [alendronic acid],48.6%,-8.78%
C/N=C(/NC#N)NCCSCc1csc(NC(=N)N)n1 [tiotidine],114%,-4.27%
CCCCCc1ccc(C)cc1O [amylmetacresol],117%,-9.49%
CC(N/C(=N\C#N)Nc1ccncc1)C(C)(C)C (stereo unspecified) [Pinacidil],83.8%,-0.366%
CCN(CC)S(=O)(=O)c1ccc(C(=O)O)cc1 [etebenecid],106%,-2.66%
CN(C)[C@@H]1C(=O)C(C(N)=O)=C(O)[C@@]2(O)C(=O)C3=C(O)c4c(O)ccc([N+](=O)[O-])c4C[C@H]3C[C@@H]12 [nitrocycline],68.6%,-0.715%
CCC1(C)OC(=O)N(C)C1=O (stereo unspecified) [paramethadione],114%,-0.792%
NC(=O)[C@@H]1CCCN1C(=O)[C@H](Cc1c[nH]cn1)NC(=O)[C@@H]1CCC(=O)N1 [protirelin],58.5%,-12.2%
NCCc1cc[nH]n1 [betazole],109%,-3.3%

SMILES,mCherry [1],percent effect [2]
COc1cc(C)c(/C=C/C(C)=C/C=C/C(C)=C/C(=O)O)c(C)c1C [acitretin],94% and 99.7%,-6.76% and -0.489%
O=C1NCCNC1c1cccs1 (stereo unspecified) [tenilsetam],104%,-3.56%
CN(C)c1nc(N(C)C)nc(N(C)C)n1 [altretamine],104% and 83%,0.599% and -1.22%
CCOC(=O)O[C@]1(C(=O)COC(=O)CC)CC[C@H]2[C@@H]3CCC4=CC(=O)C=C[C@]4(C)[C@H]3[C@@H](O)C[C@@]21C [Prednicarbate],75.6%,-5.35%
CN[C@H]1C(=O)N[C@@H]2Cc3ccc(cc3)Oc3cc4cc(c3O[C@@H]3O[C@H](C(=O)O)[C@@H](O)[C@H](O)[C@H]3NC(=O)CCCCCCCCC(C)C)Oc3ccc(cc3Cl)[C@@H](O)[C@@H]3NC(=O)[C@H](NC(=O)[C@@H]4NC(=O)[C@@H](NC2=O)c2cc(cc(O)c2Cl)Oc2cc1ccc2O)c1ccc(O)c(c1)-c1c(O[C@H]2O[C@H](CO)[C@@H](O)[C@H](O)[C@@H]2O)cc(O)cc1[C@@H](C(=O)NCCCN(C)C)NC3=O [dalbavancin],103%,0.755%
COC(=O)[C@H]1[C@H]2C[C@@H]3c4[nH]c5cc(OC)ccc5c4CCN3C[C@H]2C[C@H](OC)[C@@H]1OC [metoserpate],89.5%,-4.86%
CN1c2c(oc(=O)n(-c3ccccn3)c2=O)-c2ccccc2S1(=O)=O [droxicam],87.6%,0.776%
Cc1cc(=O)n(-c2ccccc2)n1C,70.8%,-5.35%
C/C(=C\C(=O)O)C1CCCCC1 [cicrotoic acid],96.9%,-2.92%
COc1c(N2C[C@@H]3CCCN[C@@H]3C2)c(F)cc2c(=O)c(C(=O)O)cn(C3CC3)c12,110%,2.51%
C=CCn1c(N)cc(=O)n(CC)c1=O [Mictine],96.8%,-1.74%
N[C@@H](CCC(=O)O)C(=O)N[C@@H](Cc1c[nH]c2ccccc12)C(=O)O [oglufanide],93%,-3.58%
C[Se]CCC(N)C(=O)O (stereo unspecified),107%,-0.612%
CC[C@H](C)[C@H](N)C(=O)O [isoleucine],89.7%,-6.22%
O=C(CCCl)NCCc1ccccc1 [fenaclon],119%,-2.21%
C[C@H]1C[C@H]2[C@@H]3CCC4=CC(=O)C=C[C@]4(C)[C@@]3(F)[C@@H](O)C[C@]2(C)[C@@]1(O)C(=O)COP(=O)(O)O,104%,0.112%
CC(C)C(=O)Nc1ccc([N+](=O)[O-])c(C(F)(F)F)c1 [flutamide],101% and 87%,-2.38% and -13.6%
O=C(O)CN1C(=O)c2cccc3cccc(c23)C1=O [alrestatin],115%,-5.48%
COc1ccc(Cc2cnc(N)nc2N)cc1OC [diaveridine],80.4%,-1.66%
CCCCNc1ccc(C(=O)OCCOCCOCCOCCOCCOCCOCCOCCOCCOC)cc1 [benzonatate],92.1%,-1.83%
C[C@]12CCC(=O)C=C1CC[C@@H]1[C@@H]2[C@@H](O)C[C@@]2(C)[C@H]1CC[C@]2(O)C(=O)COC(=O)CCC(=O)O,112%,-2.58%
CCn1cc(C(=O)O)c(=O)c2cc(F)c(N3CCN(C)CC3)cc21 [Pefloxacine mesylate dihydrate],52.2%,-1.37%
Nc1c2c(nc3ccccc13)CCCC2 [tacrine],92.8%,-1.66%

SMILES,mCherry [1],percent effect [2]
Clc1ccc(Nc2nnc(Cc3ccncc3)c3ccccc23)cc1 [vatalanib],78.9%,-0.54%
CC(C)(Oc1ccc(C(=O)c2ccc(Cl)cc2)cc1)C(=O)O,85.7%,-5.95%
C[N+](C)(C)C[C@H](O)CC(=O)[O-] [levocarnitine],84.9%,-1.78%
CC[C@H]1OC(=O)C[C@@H](O)[C@H](C)[C@@H](O[C@@H]2O[C@H](C)C[C@H](N(C)C)[C@H]2O)[C@@H](CC=O)C[C@@H](C)C(=O)/C=C/[C@]2(C)O[C@H]2[C@@H]1C [rosaramicin],64.8%,-4.58%
CCCCC(C(=O)O)C(=O)N(Nc1ccccc1)c1ccccc1 (stereo unspecified) [bumadizone],79.4%,-2.31%
CC(C)(C)N1CCC(c2ccccc2)(c2ccccc2)CC1 [budipine],117%,-2.39%
Cc1onc(-c2ccccc2)c1C(=O)N[C@@H]1C(=O)N2[C@@H]1SC(C)(C)[C@@H]2C(=O)O [Oxacillin],71.6%,-7.18%
CCOC(=O)c1ccc(N)cc1 [benzocaine],139%,2.26%
CCCC1(CC(=O)O)OCCc2c1[nH]c1ccccc21 (stereo unspecified) [prodolic acid],86.4%,-12.1%
CCN(CC)CCN1C(=O)c2c(c3c4cccc(Cl)c4n([C@@H]4O[C@H](CO)[C@@H](OC)[C@H](O)[C@H]4O)c3c3[nH]c4c(Cl)cccc4c23)C1=O [becatecarin],14%,-19.8%
Cc1ccnc(NS(=O)(=O)c2ccc(N)cc2)n1 [sulfamerazine],124%,-1.29%
CC(C)(C)NC[C@H](O)c1ccc(O)c(CO)c1 [levosalbutamol],108%,-0.519%
CN1CCN(c2c(F)cc3c(=O)c(C(=O)O)cn4c3c2SCC4)CC1 [rufloxacin],118% and 110%,0.358% and 4.74%
COCCCOc1cc(C[C@@H](C[C@H](N)[C@@H](O)C[C@H](C(=O)NCC(C)(C)C(N)=O)C(C)C)C(C)C)ccc1OC,148%,1.95%
Cc1cc(O)c(C(=O)N[C@@H](C(=O)N[C@@H]2C(=O)N3C(C(=O)O)=C(CSc4nnnn4C)CS[C@H]23)c2ccc(O)cc2)cn1 [Cefpiramide],119%,-6.94%
CO[C@H](C(=O)[C@@H](O)[C@@H](C)O)[C@@H]1Cc2cc3cc(O[C@H]4C[C@@H](O[C@H]5C[C@@H](O)[C@H](O)[C@@H](C)O5)[C@H](O)[C@@H](C)O4)c(C)c(O)c3c(O)c2C(=O)[C@H]1O[C@H]1C[C@@H](O[C@H]2C[C@@H](O[C@H]3C[C@](C)(O)[C@H](O)[C@@H](C)O3)[C@@H](O)[C@@H](C)O2)[C@H](O)[C@@H](C)O1 [Mithracin],17.1%,-14.7%
CC1(C)S[C@@H]2[C@H](NC(=O)[C@H](N)c3ccccc3)C(=O)N2[C@H]1C(=O)O [Ampicillin],76.3%,-6.05%
CCCNC(C)(C)COC(=O)c1ccccc1,91.9%,-2.28%
CC#CCC(C)[C@H](O)/C=C/[C@@H]1[C@H]2C/C(=C/CCCC(=O)O)C[C@H]2C[C@H]1O (stereo partly specified) [iloprost],82.4%,-13.3%
Cc1cc(C)c(NC(=O)CN(CC(=O)O)CC(=O)O)c(C)c1Br [mebrofenin],85.8%,0.479%
Cc1[nH]cnc1CN1CCc2c(c3ccccc3n2C)C1=O [alosetron],155%,-14.2%
C[N+](C)(C)CCOP(=O)(O)OP(=O)([O-])OC[C@H]1O[C@@H](n2ccc(N)nc2=O)[C@H](O)[C@@H]1O [citicoline],108%,1.34%
